Results: doi:10.1101/2022.11.02.514824
No constants are given. Whether binding was seen depends on the method and setting. Some binding calls cover weakened binding; strength is not graded here. Blank lines part the entries; values can stand above or below the binder they belong to.

Experiments:
Experiment in all cases: co-purification of co-expressed subunits
SEPT7 (human) = molecular target: T1, SEPT7 (human) (UniProt Q16181)
T1 sequence: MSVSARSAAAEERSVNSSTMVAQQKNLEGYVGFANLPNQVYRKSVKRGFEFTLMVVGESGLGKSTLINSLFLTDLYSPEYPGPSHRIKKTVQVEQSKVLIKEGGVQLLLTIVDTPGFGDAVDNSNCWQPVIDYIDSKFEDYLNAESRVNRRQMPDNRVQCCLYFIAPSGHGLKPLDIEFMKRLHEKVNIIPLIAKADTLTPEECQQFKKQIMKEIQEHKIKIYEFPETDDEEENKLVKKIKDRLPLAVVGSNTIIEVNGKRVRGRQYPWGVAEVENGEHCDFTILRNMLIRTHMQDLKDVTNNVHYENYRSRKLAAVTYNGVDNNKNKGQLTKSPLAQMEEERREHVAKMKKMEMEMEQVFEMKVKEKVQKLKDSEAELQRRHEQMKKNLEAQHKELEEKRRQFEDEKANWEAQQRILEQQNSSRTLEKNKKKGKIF

SEPT9_i1 (human), Q9UHD8 = molecular target: T2, SEPT9_i1 (human), Q9UHD8; conditions: remark: other sources report otherwise
T2 chain: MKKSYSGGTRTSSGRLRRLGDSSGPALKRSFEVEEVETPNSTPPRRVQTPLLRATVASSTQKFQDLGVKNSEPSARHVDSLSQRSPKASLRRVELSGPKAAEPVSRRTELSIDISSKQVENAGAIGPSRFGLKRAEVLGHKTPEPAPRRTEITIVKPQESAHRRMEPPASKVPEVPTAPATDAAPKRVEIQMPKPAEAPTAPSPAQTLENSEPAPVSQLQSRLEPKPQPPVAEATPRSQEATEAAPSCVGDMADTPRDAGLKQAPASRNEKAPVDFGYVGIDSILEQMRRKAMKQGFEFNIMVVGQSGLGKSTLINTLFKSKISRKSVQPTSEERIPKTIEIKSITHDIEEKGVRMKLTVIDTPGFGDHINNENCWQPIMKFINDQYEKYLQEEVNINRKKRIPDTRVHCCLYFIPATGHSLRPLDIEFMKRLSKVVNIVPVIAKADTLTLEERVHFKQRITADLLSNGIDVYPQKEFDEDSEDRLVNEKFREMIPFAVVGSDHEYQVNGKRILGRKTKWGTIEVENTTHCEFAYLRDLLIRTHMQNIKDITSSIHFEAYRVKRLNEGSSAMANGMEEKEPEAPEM

SEPT6 (human) = molecular target: T3, SEPT6 (human) (UniProt Q14141)
T3 sequence: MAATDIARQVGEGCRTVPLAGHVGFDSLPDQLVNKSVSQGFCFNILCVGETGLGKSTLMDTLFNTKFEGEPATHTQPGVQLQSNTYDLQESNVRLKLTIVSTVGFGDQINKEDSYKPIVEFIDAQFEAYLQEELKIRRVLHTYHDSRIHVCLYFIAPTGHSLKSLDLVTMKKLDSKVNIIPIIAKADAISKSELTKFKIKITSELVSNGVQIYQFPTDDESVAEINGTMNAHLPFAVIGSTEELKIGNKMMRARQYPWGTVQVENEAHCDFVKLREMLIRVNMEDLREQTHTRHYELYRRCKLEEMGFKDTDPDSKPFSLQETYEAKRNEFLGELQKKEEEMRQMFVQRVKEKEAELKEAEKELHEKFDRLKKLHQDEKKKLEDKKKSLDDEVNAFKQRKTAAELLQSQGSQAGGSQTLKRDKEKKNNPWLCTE

binding (SEPT7 (human)): binds
B1: SEPT9_i1 (protein, UniProt Q9UHD8 1-586)
chain: MKKSYSGGTRTSSGRLRRLGDSSGPALKRSFEVEEVETPNSTPPRRVQTPLLRATVASSTQKFQDLGVKNSEPSARHVDSLSQRSPKASLRRVELSGPKAAEPVSRRTELSIDISSKQVENAGAIGPSRFGLKRAEVLGHKTPEPAPRRTEITIVKPQESAHRRMEPPASKVPEVPTAPATDAAPKRVEIQMPKPAEAPTAPSPAQTLENSEPAPVSQLQSRLEPKPQPPVAEATPRSQEATEAAPSCVGDMADTPRDAGLKQAPASRNEKAPVDFGYVGIDSILEQMRRKAMKQGFEFNIMVVGQSGLGKSTLINTLFKSKISRKSVQPTSEERIPKTIEIKSITHDIEEKGVRMKLTVIDTPGFGDHINNENCWQPIMKFINDQYEKYLQEEVNINRKKRIPDTRVHCCLYFIPATGHSLRPLDIEFMKRLSKVVNIVPVIAKADTLTLEERVHFKQRITADLLSNGIDVYPQKEFDEDSEDRLVNEKFREMIPFAVVGSDHEYQVNGKRILGRKTKWGTIEVENTTHCEFAYLRDLLIRTHMQNIKDITSSIHFEAYRVKRLNEGSSAMANGMEEKEPEAPEM

binding (SEPT9_i1 (human), Q9UHD8): binds
B2: SEPT9_i1, Q9UHD8 1-586 (protein)
chain: MKKSYSGGTRTSSGRLRRLGDSSGPALKRSFEVEEVETPNSTPPRRVQTPLLRATVASSTQKFQDLGVKNSEPSARHVDSLSQRSPKASLRRVELSGPKAAEPVSRRTELSIDISSKQVENAGAIGPSRFGLKRAEVLGHKTPEPAPRRTEITIVKPQESAHRRMEPPASKVPEVPTAPATDAAPKRVEIQMPKPAEAPTAPSPAQTLENSEPAPVSQLQSRLEPKPQPPVAEATPRSQEATEAAPSCVGDMADTPRDAGLKQAPASRNEKAPVDFGYVGIDSILEQMRRKAMKQGFEFNIMVVGQSGLGKSTLINTLFKSKISRKSVQPTSEERIPKTIEIKSITHDIEEKGVRMKLTVIDTPGFGDHINNENCWQPIMKFINDQYEKYLQEEVNINRKKRIPDTRVHCCLYFIPATGHSLRPLDIEFMKRLSKVVNIVPVIAKADTLTLEERVHFKQRITADLLSNGIDVYPQKEFDEDSEDRLVNEKFREMIPFAVVGSDHEYQVNGKRILGRKTKWGTIEVENTTHCEFAYLRDLLIRTHMQNIKDITSSIHFEAYRVKRLNEGSSAMANGMEEKEPEAPEM

binding (SEPT6 (human)): binds
B3: SEPT7 (protein, UniProt Q16181 1-437)
chain: MSVSARSAAAEERSVNSSTMVAQQKNLEGYVGFANLPNQVYRKSVKRGFEFTLMVVGESGLGKSTLINSLFLTDLYSPEYPGPSHRIKKTVQVEQSKVLIKEGGVQLLLTIVDTPGFGDAVDNSNCWQPVIDYIDSKFEDYLNAESRVNRRQMPDNRVQCCLYFIAPSGHGLKPLDIEFMKRLHEKVNIIPLIAKADTLTPEECQQFKKQIMKEIQEHKIKIYEFPETDDEEENKLVKKIKDRLPLAVVGSNTIIEVNGKRVRGRQYPWGVAEVENGEHCDFTILRNMLIRTHMQDLKDVTNNVHYENYRSRKLAAVTYNGVDNNKNKGQLTKSPLAQMEEERREHVAKMKKMEMEMEQVFEMKVKEKVQKLKDSEAELQRRHEQMKKNLEAQHKELEEKRRQFEDEKANWEAQQRILEQQNSSRTLEKNKKKGKIF
